Experimental data taken from PubChem BioAssay AID330 (DTP/NCI, 2004).
The list shows only some results of the screen, not a fair sample: it is rich in T/C values a quarter to a half above the control, in often repeated tests (any T/C) and in doses without a T/C. Further doses and runs are listed elsewhere. T/C: endpoint of the treated group in % of that of the vehicle group. Some entries give survivors of the animals treated and no T/C: the source files T/C as zero there, which appears to mark a toxic dose or a test without result, not a measured value. Some doses without a T/C left all or most animals alive at the check, yet need not have been tolerated: survival well below the control is almost never listed, so the zero probably covers shortened survival too. Survivors were counted at the toxicity check, usually on the fifth day, unless a day is given; later deaths do not show. Schedules are NCI's codes, read here as Q, the interval in days (D) or hours (H), X, the number of doses. Some entries hold several experiments; the results are listed from low to high. For survival time, this PubChem deposit counts one and a half times the control or more as active, and values a quarter to a half above the control carry no call in these data; other NCI protocols may use other cut-offs.

Tested on: P388 leukemia ip, CD2F1 mice, survival T/C
Test: NCI In Vivo Anticancer Drug Screen. Data for tumor model P388 Leukemia (intraperitoneal) in CD2F1 (CDF1) mice
Conditions: T/C endpoint: median survival time, higher T/C = longer survival
[1] = dose: 120.0 mg/kg/injection, schedule: Q01DX005 (ip), vehicle: saline with Tween-80
[2] = dose: 240.0 mg/kg/injection, schedule: Q01DX005 (ip), vehicle: saline with Tween-80
[3] = dose: 400.0 mg/kg/injection, schedule: Q01DX009 (ip), vehicle: saline with Tween-80
[4] = dose: 400.0 mg/kg/injection, schedule: Q04DX003 (ip), vehicle: saline with Tween-80

## O=S(=O)(F)c1ccc(C[P+](c2ccccc2)(c2ccccc2)c2ccccc2)cc1Cl
[1]
  survivor count: 1 of 6
[2]
  survivor count: 0 of 6

## CCN(CC)CCOC(=O)c1ccc(N)c2ccccc12
dose: 200.0 mg/kg/injection, schedule: Q01DX005 (ip), vehicle: saline with Tween-80
  survivor count: 0 of 6

## C1CNCOC1
dose: 400.0 mg/kg/injection, schedule: Q04DX003 (ip), vehicle: saline
  survivor count: 3 of 6

## C=C1C(NC)CCC23CC24CCC2(C)C(C(C)=O)C(O)CC2(C)C4CCC13 (stereo not given)
dose: 200.0 mg/kg/injection, schedule: Q01DX009 (ip), vehicle: saline with Tween-80
  survivor count: 2 of 6
[3]
  survivor count: 0 of 6

## COC(=O)C(Cc1ccc(N(CCCl)CCCl)cc1)N=NNc1nc[nH]c1C(N)=O (stereo not given)
dose: 100.0 mg/kg/injection, schedule: Q04DX003 (ip), vehicle: saline with Tween-80
  survivor count: 6 of 6
dose: 200.0 mg/kg/injection, schedule: Q04DX003 (ip), vehicle: saline with Tween-80
  survivor count: 5 of 6
[4]
  survivor count: 0 of 6

## O=C1c2ccccc2C(=O)C1(Br)C(Cl)c1ccccc1 (stereo not given)
dose: 200.0 mg/kg/injection, schedule: Q01DX009 (ip), vehicle: Klucel (hydroxypropylcellulose) (HPC)
  survivor count: 5 of 6
dose: 400.0 mg/kg/injection, schedule: Q04DX003 (ip), vehicle: Klucel (hydroxypropylcellulose) (HPC)
  survivor count: 5 of 6

## O=N[O-].O=N[O-].[I][Pt][I]
dose: 25.0 mg/kg/injection, schedule: Q01DX005 (ip), vehicle: saline
  T/C: 125 % of control
dose: 50.0 mg/kg/injection, schedule: Q01DX005 (ip), vehicle: saline, evaluated on day 20
  T/C: 137 % of control
dose: 50.0 mg/kg/injection, schedule: Q01DX005 (ip), vehicle: saline, evaluated on day 30
  T/C: 126 % of control
dose: 100.0 mg/kg/injection, schedule: Q01DX005 (ip), vehicle: saline
  survivor count: 5 of 6
dose: 200.0 mg/kg/injection, schedule: Q01DX005 (ip), vehicle: saline
  survivor count: 0 of 6

## Cc1cnc(C)c(NN=O)n1
dose: 12.5 mg/kg/injection, schedule: Q01DX009 (ip), vehicle: saline
  T/C: 131 % of control
dose: 25.0 mg/kg/injection, schedule: Q01DX009 (ip), vehicle: saline
  T/C: 126 and 133 % of control
dose: 50.0 mg/kg/injection, schedule: Q01DX009 (ip), vehicle: saline
  survivor count: 6 of 6

## CC(=O)O[C@H]1CC[C@]2(C)C3CC[C@]4(C)C([C@H](C)CCCC(C)C)CCC4[C@]3(/C=N/O)n3c(=O)n(-c4ccccc4)c(=O)n3[C@]2(/C=N\O)C1 (stereo not given in full)
dose: 3.75 mg/kg/injection, schedule: Q01DX005 (ip), vehicle: saline with Tween-80
  survivor count: 5 of 6
dose: 7.5 mg/kg/injection, schedule: Q01DX005 (ip), vehicle: saline with Tween-80
  survivor count: 0 of 5 and 0 of 6
dose: 15.0 mg/kg/injection, schedule: Q01DX005 (ip), vehicle: saline with Tween-80
  survivor count: 0 of 6
dose: 30.0 mg/kg/injection, schedule: Q01DX005 (ip), vehicle: saline with Tween-80
  survivor count: 0 of 6
dose: 60.0 mg/kg/injection, schedule: Q01DX005 (ip), vehicle: saline with Tween-80
  survivor count: 0 of 6
[1]
  survivor count: 0 of 6
[2]
  survivor count: 0 of 6

## CCO/C=C1\SC(=S)N(c2cccc(OC)c2)C1=O
[3]
  T/C: 127 % of control
[4]
  T/C: 136 % of control

## Nc1ccc2c(=O)[nH]cnc2c1
dose: 200.0 mg/kg/injection, schedule: Q01DX005 (ip), vehicle: Klucel (hydroxypropylcellulose) (HPC)
  survivor count: 3 of 5

## CC1(C)C(C)(C)C1(Br)Br
dose: 50.0 mg/kg/injection, schedule: Q01DX009 (ip), vehicle: saline + alcohol
  survivor count: 6 of 6

## c1ccc2c3cc(cc2c1)OCCOCCOCCOc1ccc2ccccc2c1-c1c(ccc2ccccc12)OCCOCCOc1ccc2ccccc2c1-3
dose: 400.0 mg/kg/injection, schedule: Q01DX001 (ip), vehicle: saline with Tween-80
  survivor count: 6 of 6

## COc1ccc(C(CC(=O)O)CC(=O)N(CCCl)CCCl)cc1 (stereo not given)
dose: 100.0 mg/kg/injection, schedule: Q01DX001 (ip), vehicle: suspension in saline
  T/C: 146 % of control
dose: 200.0 mg/kg/injection, schedule: Q01DX001 (ip), vehicle: suspension in saline
  T/C: 140 % of control
dose: 400.0 mg/kg/injection, schedule: Q01DX001 (ip), vehicle: suspension in saline
  survivor count: 0 of 6

## CC1Oc2cc3c(-c4c(O)cc(O)c5c(O)c6c(cc45)OC(C)C(C)C6=O)c(O)cc(O)c3c(O)c2C(=O)C1C (stereo not given)
dose: 5.0 mg/kg/injection, schedule: Q01DX005 (ip), vehicle: saline
  T/C: 136 % of control
